# From article PMC8274477
# Results are given in words; binding and its absence hold for the method and conditions named. In cells and extracts the contact can be indirect. Some entries that bind do so weakly or less than the wild type. Where a sequence is shown, tags or fusion partners need not be part of it.
# What was measured:
# Flag-OTULIN (human) = Flag-OTULIN (human) (UniProt Q96BN8); test: co-IP; HEK 293T cells co-transfected with Myc-tagged candidate and Flag-HOIP or Flag-OTULIN; lysis in 50 mM Tris-HCl pH 7.4, 150 mM NaCl, 5 mM EDTA, 1% Triton X-100; protein A/G agarose, 4 C overnight; immunoblot
# Flag-HOIP (human) = Flag-HOIP (human) (UniProt Q96EP0); test: as above
binder,measurement,setting,value
"Myc-LAG3 wild type (lymphocyte activation gene-3, CD223) (receptor, UniProt P18627 23-525) LQPGAEVPVVWAQEGAPAQLPCSPTIPLQDLSLLRRAGVTWQHQPDSGPPAAAPGHPLAPGPHPAAPSSWGPRPRRYTVLSVGPGGLRSGRLPLQPRVQLDERGRQRGDFSLWLRPARRADAGEYRAAVHLRDRALSCRLRLRLGQASMTASPPGSLRASDWVILNCSFSRPDRPASVHWFRNRGQGRVPVRESPHHHLAESFLFLPQVSPMDSGPWGCILTYRDGFNVSIMYNLTVLGLEPPTPLTVYAGAGSRVGLPCRLPAGVGTRSFLTAKWTPPGGGPDLLVTGDNGDFTLRLEDVSQAQAGTYTCHIHLQEQQLNATVTLAIITVTPKSFGSPGSLGKLLCEVTPVSGQERFVWSSLDTPSQRSFSGPWLEAQEAQLLSQPWQCQLYQGERLLGAAVYFTELSSPGAQRSGRAPGALPAGHLLLFLILGVLSLLLLVTGAFGFHLWRRQWRPRRFSALEQGIHPPQAQSKIEELEQEPEPEPEPEPEPEPEPEPEQL",binding,Flag-OTULIN (human),binds
same,binding,Flag-HOIP (human),binds
